# Laboratory results from the supplement of paper PMC3334620.
# The full ranking holds about 33,000 sequences; the median of “E-score (-0.5 to 0.5)” is about -0.0034, and the highest 2% start at about 0.25. The list shows a part of the results.
# Molecular target: T1, Yap3 (UniProt P38749)
# T1 sequence: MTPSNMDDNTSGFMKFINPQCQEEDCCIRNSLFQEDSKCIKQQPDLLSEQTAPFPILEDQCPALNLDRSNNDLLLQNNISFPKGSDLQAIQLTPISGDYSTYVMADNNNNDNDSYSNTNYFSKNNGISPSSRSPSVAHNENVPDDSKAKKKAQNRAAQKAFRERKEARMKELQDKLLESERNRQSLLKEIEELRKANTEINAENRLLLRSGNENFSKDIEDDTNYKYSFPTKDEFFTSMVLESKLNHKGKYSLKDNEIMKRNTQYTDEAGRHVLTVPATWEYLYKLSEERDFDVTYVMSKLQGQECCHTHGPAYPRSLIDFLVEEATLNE
# Assay: PBM E-score (8-mer binding enrichment) (E-score (-0.5 to 0.5)); higher = stronger / more preferred TF binding
# Details: protein concentration: 100 nM; construct: GST-full length
# Procedure, shortened: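 Yeast transcription factors carrying a GST tag, as full-length proteins or DNA-binding domains, were produced by PURExpress in vitro transcription/translation. About 100-200 nM protein was applied to universal all-10-mer Agilent arrays, double-stranded by primer extension on fresh or once-stripped slides. Bound protein was detected with fluorescent anti-GST, and scans were normalised with masliner. The Universal PBM Analysis Suite gave each ungapped eight-base word, pooled with its reverse complement, an E-score, a modified Wilcoxon-Mann-Whitney statistic.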
row,Sequence,PBM E-score
1,GCTGAGTA,0.0149
2,ATATACCA,0.213
3,ATTAATGG,0.185
4,AAGAAACA,0.217
5,TACCACTA,0.0932
6,GGGCACCC,-0.424
7,ACCAGTAT,0.0555
8,CCGATTAC,0.0783
9,AATTGAGA,0.101
10,GAGGCCAA,-0.0373
11,ATCAAATC,0.197
12,CAGGACAG,-0.0314
13,CGGGAGGA,-0.192
14,AGGGCAGG,-0.253
15,AGAATACA,0.191
16,GATGGCGA,0.0553
17,TGCTAACA,-0.0164
18,ATTGGATA,0.161
19,CGTTTCAA,0.0256
20,GTAGACCA,-0.0918
21,AATATCGT,0.167
22,ACTGGGTA,-0.0875
23,AAATTTCA,0.0121
24,ACCTGGCA,0.0301
25,ATCTTATG,0.0696

row,Sequence,PBM E-score
1,CCCTAATA,0.0505
2,GCTGTTGA,0.126
3,GCATTCAA,0.0939
4,GAGACATA,0.167
5,CGATCACA,0.152
6,ACGATGAG,0.0506
7,GTGTGCAA,0.081
8,AATTAAGA,0.154
9,GATCTTCA,0.0256
10,GCCTTTTA,-0.0778
11,ACTAAAAA,0.186
12,CAATGACA,0.148
13,CTACAGCA,-0.0455
14,GAGACCAA,0.14
15,ACTAGTAC,0.0353
16,CTCGAAAG,-0.102
17,ACTCCCAA,-0.00646
18,CGTTCTAG,-0.00341
19,CTAGACAG,-0.00572
20,ACATTAGC,0.0809
21,ACTATGAT,0.0862
22,ACTTACTC,0.0147
23,CATTAGAA,0.123
24,ATGGGACA,-0.063
25,GCACGGCC,-0.0946

row,Sequence,PBM E-score
1,ACCACGAG,0.0948
2,AGCTTGTC,-0.138
3,AATGATCG,-0.0139
4,ATTTATAG,0.206
5,CGCCCGTA,-0.138
6,CGCCTCGC,-0.0441
7,CCACCCCA,-0.0156
8,ATATTACG,0.412
9,CGGACGCA,-0.14
10,CGACCGCG,-0.129
11,ACACACCT,0.156
12,CGCCTGAG,-0.281
13,GAAATAAA,0.14
14,AATGGTAA,0.139
15,CAAACTGA,0.0396
16,CATAAGTA,0.0648
17,CTGTTGCA,0.0755
18,AGACTGGC,-0.21
19,ACCTCTTC,0.0473
20,GCTATCTA,-0.149
21,GAGGGCCA,-0.104
22,AAAACGCC,0.034
23,CGTTAAGC,0.124
24,AAAACACT,0.138
25,CTTCACTC,0.0393

row,Sequence,PBM E-score
1,GGCTTACC,-0.109
2,AAGCCGTG,-0.0151
3,CGGGTTTC,0.143
4,AACAGATT,0.0661
5,ATATCCTG,-0.00352
6,CGGTTAAC,-0.0649
7,AGGCCTAC,0.0567
8,CGGTATAA,0.18
9,TCCCAGCA,-0.0642
10,ATTCATTA,0.174
11,CATTGTGG,0.0578
12,GACCTCAC,-0.143
13,CATCGTTA,0.0683
14,CCCTAACA,0.246
15,GAACGTAA,0.193
16,GAGTCTGC,-0.114
17,AAGCTGTC,-0.113
18,GTACTGGA,0.073
19,AGTCCCGC,-0.163
20,ACGTTGGA,-0.0317
21,CAGCCTTC,-0.144
22,AGAACGTC,-0.0436
23,GATTCTCA,-0.0856
24,AGGCCCTC,-0.157
25,AACGAGAT,0.11

row,Sequence,PBM E-score
1,CCAAGTAC,-0.0358
2,AGGCATCG,-0.177
3,ACCTGCGC,-0.0863
4,AGGGACGC,-0.114
5,ACAGACTG,-0.0824
6,ATGATTAA,0.274
7,TCACACGA,0.0224
8,AGTATCGG,0.0265
9,ACATTCGT,0.0616
10,GAAGCGAA,-0.0424
11,TACACTGA,0.0774
12,GCCCTGAC,-0.19
13,AGACGTCG,4e-05
14,GACGGTAA,0.0471
15,CACCTATA,-0.0571
16,ATCGGCCG,-0.142
17,CAATTAGG,-0.00825
18,CTCCAATA,0.168
19,ACAAAGGA,0.103
20,AAAGGACA,0.0199
21,ACAAATGC,0.149
22,CGGAAACC,-0.185
23,AGAAAACA,0.186
24,TAGCCGCA,-0.207
25,GTCATGGA,-0.0689

# Another view of some results above:
row | Sequence | PBM E-score
5 | CGATCACA | 0.152
6 | ACGATGAG | 0.0506

# (list continues)

row,Sequence,PBM E-score
1,ATTAATTC,0.3
2,AGGGATCA,-0.0434
3,AGCAACCC,-0.161
4,CACTGAGC,-0.114
5,GTGAGAAC,-0.158
6,CCCTCAAA,-0.0386
7,GTAAAGAC,0.158
8,AACGGGGT,-0.255
9,CATGGACA,-0.0959
10,CAGCTATG,-0.125
11,CCGCTTGA,-0.0909
12,GATCGACC,0.00273
13,ACCCGACC,-0.189
14,TAGGGCAA,-0.0175
15,CAGTCATA,-0.0324
16,ATAATGTA,0.292
17,CAGTGTTA,0.225
18,AACAGGCG,-0.272
19,GCGTGGCA,-0.117
20,GAAGGACA,-0.0391
21,ACAGCGTA,-0.0717
22,ACTCTACG,-0.13
23,AAATGTAA,0.227
24,AGTTTCTC,0.0391
25,GGCCTGAA,-0.204

row,Sequence,PBM E-score
1,CAATCAAC,0.217
2,ACTTGTCG,0.0841
3,GGAAACCA,-0.0449
4,CTACAAAG,0.0143
5,CATGTCCA,0.0196
6,GTCGCGCA,0.0573
7,CTACCCAA,0.135
8,ATACCCCG,-0.135
9,CATTCAGC,0.00584
10,AAGGGCAA,-0.0346
11,AGTGACAG,0.0684
12,GATCAGAA,-0.0906
13,ATTATTGG,0.0681
14,CCTAGATC,-0.019
15,GCTAAAGC,-0.102
16,GCGAGCCA,-0.0927
17,CAGATCGG,-0.0324
18,CGTACAGC,-0.0576
19,ACTCTGCA,0.0724
20,AACCCATC,-0.11
21,ACCATTTC,0.112
22,CCCGTAAG,-0.0857

# Looked up above:
# PBM E-score, CGTACAGC is entered as -0.0576
# PBM E-score, GTCGCGCA is entered as 0.0573
# PBM E-score, CATGTCCA is entered as 0.0196
# PBM E-score, CTACCCAA is entered as 0.135
# PBM E-score, ACCATTTC is entered as 0.112
